Experimental data taken from the supplement of paper PMC6078165.

Test system: MDAMB231
Assay: relative JC-1 red fluorescence (viability) vs pre-drug, coculture with fibroblast (fraction); higher = more viable cancer cells
Experimental: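 JC-1 labelled TNBC cells cocultured 1:1 (1,500 cells each) with CellTrace Violet stained primary or stromal fibroblasts in 384-well plates in FluoroBrite medium, treated with one of 42 anticancer drugs at 0.1, 1, 10 or 100 uM. JC-1 red fluorescence (mitochondrial integrity in cancer cells only) was read by plate reader every 8 h for 72 h. Values are normalised to each well's pre-drug value. The stock of one drug was tenfold lower, so its dose labels may be too high.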

CO[C@H]1C[C@@H]2CC[C@@H](C)[C@@](O)(O2)C(=O)C(=O)N2CCCC[C@H]2C(=O)O[C@H]([C@H](C)C[C@@H]2CC[C@@H](O)[C@H](OC)C2)CC(=O)[C@H](C)/C=C(\C)[C@@H](O)[C@@H](OC)C(=O)[C@H](C)C[C@H](C)/C=C/C=C/C=C/1C [Rapamycin]
relative JC-1 red fluorescence
Conditions | 8 h | 16 h | 24 h | 32 h | 40 h | 48 h | 56 h | 64 h | 72 h
10 µM, coculture fibroblast: C12385 | 0.681 ± 0.022 | 0.753 ± 0.046 | 0.635 ± 0.038 | 0.775 ± 0.062 | 0.763 ± 0.068 | 0.771 ± 0.058 | 0.739 ± 0.066 | 0.74 ± 0.067 | 0.726 ± 0.062
10 µM, coculture fibroblast: H6013 | 0.86 ± 0.012 | 0.808 ± 0.048 | 0.813 ± 0.063 | 0.7804 ± 0.0054 | 0.762 ± 0.04 | 0.739 ± 0.045 | 0.835 ± 0.14 | 0.776 ± 0.051 | 0.778 ± 0.092
10 µM, coculture fibroblast: H6019 | 0.694 ± 0.014 | 0.664 ± 0.026 | 0.541 ± 0.039 | 0.574 ± 0.019 | 0.561 ± 0.0061 | 0.5722 ± 0.002 | 0.582 ± 0.0063 | 0.618 ± 0.03 | 0.618 ± 0.029
10 µM, coculture fibroblast: H6076 | 0.825 ± 0.16 | 0.98 ± 0.026 | 0.9623 ± 0.008 | 0.962 ± 0.011 | 0.944 ± 0.022 | 0.943 ± 0.015 | 0.955 ± 0.01 | 0.968 ± 0.018 | 0.976 ± 0.013
10 µM, coculture fibroblast: H6231 | 0.94 ± 0.012 | 0.9395 ± 0.0073 | 0.953 ± 0.037 | 0.95 ± 0.042 | 0.935 ± 0.044 | 0.947 ± 0.044 | 0.93 ± 0.062 | 0.939 ± 0.073 | 0.926 ± 0.083
10 µM, coculture fibroblast: HADF | 0.9059 ± 0.0072 | 0.891 ± 0.034 | 0.907 ± 0.044 | 0.939 ± 0.065 | 0.938 ± 0.084 | 0.903 ± 0.092 | 0.921 ± 0.091 | 0.921 ± 0.056 | 0.904 ± 0.056
10 µM, coculture fibroblast: HCFa | 0.902 ± 0.041 | 0.857 ± 0.038 | 0.854 ± 0.047 | 0.852 ± 0.034 | 0.8026 ± 0.0036 | 0.758 ± 0.014 | 0.74716 ± 0.00054 | 0.723 ± 0.025 | 0.691 ± 0.028
10 µM, coculture fibroblast: HCPF | 0.856 ± 0.12 | 0.911 ± 0.017 | 0.941 ± 0.023 | 0.833 ± 0.19 | 0.853 ± 0.17 | 0.881 ± 0.063 | 0.9016 ± 0.0061 | 0.83 ± 0.069 | 0.841 ± 0.059
10 µM, coculture fibroblast: HHSteC | 0.8818 ± 0.0033 | 0.8656 ± 0.007 | 0.8636 ± 0.007 | 0.8609 ± 0.0011 | 0.843 ± 0.021 | 0.829 ± 0.021 | 0.799 ± 0.017 | 0.796 ± 0.026 | 0.761 ± 0.016
10 µM, coculture fibroblast: HMF | 0.954 ± 0.06 | 0.927 ± 0.033 | 0.9289 ± 0.0027 | 0.9173 ± 0.0027 | 0.912 ± 0.034 | 0.884 ± 0.032 | 0.887 ± 0.04 | 0.877 ± 0.044 | 0.864 ± 0.049
10 µM, coculture fibroblast: HPFa | 0.909 ± 0.013 | 0.929 ± 0.03 | 0.912 ± 0.049 | 0.907 ± 0.054 | 0.912 ± 0.064 | 0.897 ± 0.07 | 0.873 ± 0.073 | 0.87 ± 0.085 | 0.833 ± 0.083
10 µM, coculture fibroblast: HUF | 0.7421 ± 0.005 | 0.737 ± 0.018 | 0.806 ± 0.063 | 0.782 ± 0.069 | 0.777 ± 0.057 | 0.773 ± 0.064 | 0.743 ± 0.066 | 0.76 ± 0.074 | 0.747 ± 0.073
10 µM, coculture fibroblast: Hs5 | 0.9921 ± 0.00058 | 0.971 ± 0.011 | 0.971 ± 0.011 | 0.961 ± 0.036 | 0.947 ± 0.033 | 0.909 ± 0.036 | 0.877 ± 0.052 | 0.87 ± 0.061 | 0.852 ± 0.056
10 µM, coculture fibroblast: Hs27A | 0.8568 ± 0.0041 | 0.853 ± 0.018 | 0.862 ± 0.019 | 0.877 ± 0.026 | 0.842 ± 0.028 | 0.763 ± 0.015 | 0.811 ± 0.013 | 0.809 ± 0.021 | 0.783 ± 0.016
10 µM, coculture fibroblast: Hs343T | 0.9724 ± 0.0019 | 0.932 ± 0.014 | 0.9131 ± 0.0082 | 0.898 ± 0.017 | 0.8608 ± 0.004 | 0.8397 ± 0.0015 | 0.815 ± 0.013 | 0.8099 ± 0.0021 | 0.81089 ± 0.00016
10 µM, coculture fibroblast: WS1 | 0.6916 ± 0.0068 | 0.723 ± 0.017 | 0.67 ± 0.016 | 0.745 ± 0.016 | 0.752 ± 0.017 | 0.741 ± 0.016 | 0.724 ± 0.017 | 0.731 ± 0.011 | 0.709 ± 0.011
100 µM, coculture fibroblast: C12385 | 0.64452 ± 0.00055 | 0.689 ± 0.033 | 0.497 ± 0.038 | 0.543 ± 0.081 | 0.47 ± 0.13 | 0.34 ± 0.1 | 0.274 ± 0.067 | 0.2536 ± 0.00086 | 0.269 ± 0.036
100 µM, coculture fibroblast: H6013 | 0.8333 ± 0.0046 | 0.671 ± 0.036 | 0.556 ± 0.031 | 0.509 ± 0.039 | 0.392 ± 0.033 | 0.343 ± 0.05 | 0.338 ± 0.052 | 0.362 ± 0.057 | 0.363 ± 0.051
100 µM, coculture fibroblast: H6019 | 0.793 ± 0.048 | 0.771 ± 0.062 | 0.641 ± 0.026 | 0.692 ± 0.058 | 0.644 ± 0.064 | 0.557 ± 0.054 | 0.449 ± 0.064 | 0.338 ± 0.037 | 0.282 ± 0.022
100 µM, coculture fibroblast: H6076 | 0.8363 ± 0.008 | 0.662 ± 0.074 | 0.586 ± 0.094 | 0.514 ± 0.075 | 0.442 ± 0.058 | 0.351 ± 0.045 | 0.305 ± 0.035 | 0.308 ± 0.018 | 0.331 ± 0.013
100 µM, coculture fibroblast: H6231 | 0.86 ± 0.096 | 0.901 ± 0.046 | 0.844 ± 0.042 | 0.857 ± 0.2 | 0.891 ± 0.017 | 0.761 ± 0.017 | 0.701 ± 0.15 | 0.707 ± 0.12 | 0.708 ± 0.026
100 µM, coculture fibroblast: HADF | 0.8423 ± 0.0046 | 0.704 ± 0.045 | 0.544 ± 0.026 | 0.484 ± 0.041 | 0.362 ± 0.028 | 0.28 ± 0.057 | 0.265 ± 0.062 | 0.294 ± 0.07 | 0.299 ± 0.067
100 µM, coculture fibroblast: HCFa | 0.859 ± 0.034 | 0.732 ± 0.049 | 0.638 ± 0.043 | 0.602 ± 0.051 | 0.495 ± 0.036 | 0.368 ± 0.026 | 0.324 ± 0.032 | 0.334 ± 0.042 | 0.338 ± 0.041
100 µM, coculture fibroblast: HCPF | 0.969 ± 0.027 | 0.779 ± 0.044 | 0.8115 ± 0.0011 | 0.866 ± 0.079 | 0.742 ± 0.033 | 0.778 ± 0.19 | 0.754 ± 0.3 | 0.661 ± 0.23 | 0.642 ± 0.18
100 µM, coculture fibroblast: HHSteC | 0.879 ± 0.01 | 0.776 ± 0.0094 | 0.654 ± 0.04 | 0.603 ± 0.058 | 0.482 ± 0.051 | 0.379 ± 0.075 | 0.326 ± 0.08 | 0.339 ± 0.071 | 0.352 ± 0.061
100 µM, coculture fibroblast: HMF | 0.9609 ± 0.0039 | 0.869 ± 0.056 | 0.772 ± 0.18 | 0.697 ± 0.22 | 0.629 ± 0.23 | 0.527 ± 0.22 | 0.472 ± 0.21 | 0.458 ± 0.22 | 0.473 ± 0.24
100 µM, coculture fibroblast: HPFa | 0.908 ± 0.017 | 0.799 ± 0.043 | 0.656 ± 0.024 | 0.587 ± 0.0073 | 0.4885 ± 0.0037 | 0.387 ± 0.016 | 0.321 ± 0.049 | 0.321 ± 0.075 | 0.326 ± 0.077
100 µM, coculture fibroblast: HUF | 0.788 ± 0.078 | 0.779 ± 0.14 | 0.809 ± 0.15 | 0.765 ± 0.2 | 0.613 ± 0.23 | 0.53 ± 0.12 | 0.48 ± 0.011 | 0.54 ± 0.017 | 0.553 ± 0.025
100 µM, coculture fibroblast: Hs5 | 0.925 ± 0.024 | 0.691 ± 0.055 | 0.59 ± 0.047 | 0.518 ± 0.043 | 0.472 ± 0.041 | 0.396 ± 0.048 | 0.357 ± 0.058 | 0.35 ± 0.065 | 0.376 ± 0.097
100 µM, coculture fibroblast: Hs27A | 0.832 ± 0.036 | 0.759 ± 0.04 | 0.728 ± 0.059 | 0.683 ± 0.078 | 0.582 ± 0.11 | 0.464 ± 0.14 | 0.395 ± 0.053 | 0.432 ± 0.034 | 0.426 ± 0.045
100 µM, coculture fibroblast: Hs343T | 0.919 ± 0.091 | 0.819 ± 0.057 | 0.719 ± 0.082 | 0.629 ± 0.1 | 0.544 ± 0.11 | 0.452 ± 0.12 | 0.39 ± 0.087 | 0.372 ± 0.051 | 0.35526 ± 0.00023
100 µM, coculture fibroblast: WS1 | 0.745 ± 0.052 | 0.721 ± 0.042 | 0.51 ± 0.11 | 0.509 ± 0.13 | 0.446 ± 0.14 | 0.332 ± 0.13 | 0.265 ± 0.11 | 0.26 ± 0.081 | 0.284 ± 0.084

± gives the standard deviation of the averaged measurements. Values are relative to the signal before dosing, not to a vehicle control; the signal also falls without drug.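 Fibroblast labels name human fibroblasts: mostly primary ones from tissues such as uterus (C12385, HUF), lung (H6013), bone (Hs27A), adrenal (HADF) and skin (WS1), plus mammary HMF and breast cancer-associated Hs343T. The cancer cells are basal-like or mesenchymal-like triple-negative breast cancer lines. The paper calls a changed response a hit when it shifts by more than 3x the replicate standard deviation. The tissue of the other fibroblasts is not given here.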
